Assay results as given in article PMC2774517.
Results are given in words; binding and its absence hold for the method and conditions named. Binding seen in cells or lysates may run through a third protein. Some entries that bind do so weakly or less than the wild type. Where a sequence is shown, tags or fusion partners need not be part of it.

B1: T7-CAPN3 C129S (active site mutant of Calpain 3) (enzyme, UniProt P20807 1-821)
chain: MPTVISASVAPRTAAEPRSPGPVPHPAQSKATEAGGGNPSGIYSAIISRNFPIIGVKEKTFEQLHKKCLEKKVLYVDPEFPPDETSLFYSQKFPIQFVWKRPPEICENPRFIIDGANRTDICQGELGDSWFLAAIACLTLNQHLLFRVIPHDQSFIENYAGIFHFQFWRYGEWVDVVIDDCLPTYNNQLVFTKSNHRNEFWSALLEKAYAKLHGSYEALKGGNTTEAMEDFTGGVAEFFEIRDAPSDMYKIMKKAIERGSLMGCSIDDGTNMTYGTSPSGLNMGELIARMVRNMDNSLLQDSDLDPRGSDERPTRTIIPVQYETRMACGLVRGHAYSVTGLDEVPFKGEKVKLVRLRNPWGQVEWNGSWSDRWKDWSFVDKDEKARLQHQVTEDGEFWMSYEDFIYHFTKLEICNLTADALQSDKLQTWTVSVNEGRWVRGCSAGGCRNFPDTFWTNPQYRLKLLEEDDDPDDSEVICSFLVALMQKNRRKDRKLGASLFTIGFAIYEVPKEMHGNKQHLQKDFFLYNASKARSKTYINMREVSQRFRLPPSEYVIVPSTYEPHQEGEFILRVFSEKRNLSEEVENTISVDRPVKKKKTKPIIFVSDRANSNKELGVDQESEEGKGKTSPDKQKQSPQPQPGSSDQESEEQQQFRNIFKQIAGDDMEICADELKKVLNTVVNKHKDLKTHGFTLESCRSMIALMDTDGSGKLNLQEFHHLWNKIKAWQKIFKHYDTDQSGTINSYEMRNAVNDAGFHLNNQLYDIITMRYADKHMNIDFDSFICCFVRLEGMFRAFHAFDKDGDGIIKLNVLEWLQLTMYA
B2: endogenous full-length CAPN3 (Calpain 3) of IM2 myoblasts (enzyme, UniProt Q64691 1-821)
chain: MPTVISPTVAPRTGAEPRSPGPVPHPAQGKTTEAGGGHPSGIYSAIISRNFPIIGVKEKTFEQLRRKCLEKKVLYLDPEFPPDETSLFYSQKFPIQFVWKRPPEICENPRFIIGGANRTDICQGDLGDCWFLAAIACLTLNERLLFRVIPHDQSFTENYAGIFHFQFWRYGDWVDVVIDDCLPTYNNQLVFTKSNHRNEFWSALLEKAYAKLHGSYEALKGGNTTEAMEDFTGGVTEFFEIKDAPSDMYKIMRKAIERGSLMGCSIDDGTNMTYGTSPSGLNMGELIARMVRNMDNSLLRDSDLDPRGSDDRPSRTIVPVQYETRMACGLVKGHAYSVTGLEEALFKGEKVKLVRLRNPWGQVEWNGSWSDGWKDWSFVDKDEKARLQHQVTEDGEFWMSYDDFVYHFTKLEICNLTADALESDKLQTWTVSVNEGRWVRGCSAGGCRNFPDTFWTNPQYRLKLLEEDDDPEDSEVICSFLVALMQKNRRKDRKLGANLFTIGFAIYEVPKEMHGNKQHLQKDFFLYNASKARSKTYINMREVSQRFRLPPSEYVIVPSTYEPHQEGEFILRVFSEKRNLSEEAENTISVDRPVKKKKNKPIIFVSDRANSNKELGVDQEAEEGKDKAGPEKRGETPQPRPGHTDQESEEQQQFRNIFRQIAGDDMEICADELKNVLNTVVNKHKDLKTQGFTLESCRSMIALMDTDGSGRLNLQEFHHLWKKIKAWQKIFKHYDTDHSGTINSYEMRNAVNDAGFHLNSQLYDIITMRYADKHMNIDFDSFICCFVRLEGMFRAFNAFDKDGDGIIKLNVLEWLQLTMYA

Assays:
[1] = molecular target: T1, GST-fused PARVB (Parvalbumin B as printed) (mouse) (UniProt Q9ES46); assay: pull-down; GST fusion (or GST) bound to GST sepharose beads from cleared E. coli lysate and washed 3x with lysis buffer A; T7-CAPN3c129s bacterial lysate added, overnight at 4°C; beads washed 5x; immunoblot with anti-CAPN3; only the target purified
T1 sequence: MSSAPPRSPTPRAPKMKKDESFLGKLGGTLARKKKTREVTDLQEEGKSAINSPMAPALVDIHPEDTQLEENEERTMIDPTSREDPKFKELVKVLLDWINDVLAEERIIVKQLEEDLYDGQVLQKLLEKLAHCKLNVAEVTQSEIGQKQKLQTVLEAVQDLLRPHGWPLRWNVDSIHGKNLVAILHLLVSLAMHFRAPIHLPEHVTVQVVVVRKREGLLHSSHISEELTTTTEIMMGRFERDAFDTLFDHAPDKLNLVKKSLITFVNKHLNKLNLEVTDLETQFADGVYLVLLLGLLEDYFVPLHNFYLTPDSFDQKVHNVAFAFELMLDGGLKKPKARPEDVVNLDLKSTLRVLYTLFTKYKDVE

[2] = molecular target: T1, GST-fused PARVB (Parvalbumin B as printed) (mouse); assay: pull-down; GST fusion (or GST) bound to GST sepharose beads from cleared E. coli lysate and washed; IM2 mouse myoblast lysate (buffer B: 50 mM Tris-HCl pH 7.5, 150 mM NaCl, 0.2% Triton X-100; pre-treated with GST sepharose beads) added, overnight at 4°C; beads washed 5x; immunoblot with anti-CAPN3 or anti-PARVB; only the target purified

Row | Binder | binding [1] | binding [2]
1 | B1 | binds | 
2 | B2 |  | binds
